The list shows only some results of the screen, not a fair sample: it is rich in T/C values a quarter to a half above the control, in often repeated tests (any T/C) and in doses without a T/C. Further doses and runs are listed elsewhere. T/C: endpoint of the treated group in % of that of the vehicle group. Some entries give survivors of the animals treated and no T/C: the source holds a T/C of zero for them, seemingly a mark for toxic or unscored doses. Some survivor counts are full or nearly so, which does not show that the dose was tolerated: the source hardly ever lists a survival T/C far under the control, and the zero likely stands for such cases as well. Counts of survivors are from the toxicity check (mostly the fifth day) where no day follows; animals may have died later. Schedule codes are those of the source, read here as Q, the interval in days (D) or hours (H), X, the number of doses. Some entries were tested several times; their values stand side by side, smallest first. Where survival is the endpoint, this PubChem deposit counts one and a half times the control or more as active, and values a quarter to a half above the control carry no call in these data; other NCI protocols may use other cut-offs. Some T/C values carry the count of animals alive at the toxicity check (mostly the fifth day); without a count, all were alive then.
Tested on: P388 leukemia ip, CD2F1 mice, survival T/C
Assay: NCI In Vivo Anticancer Drug Screen. Data for tumor model P388 Leukemia (intraperitoneal) in CD2F1 (CDF1) mice
Conditions: T/C endpoint: median survival time, higher T/C = longer survival
[1] = dose: 8.0 mg/kg/injection, schedule: Q04DX003 (ip), vehicle: water
[2] = dose: 32.0 mg/kg/injection, schedule: Q04DX003 (ip), vehicle: saline

## COc1cccc2c1C(=O)c1c(O)c3c(c(O)c1C2=O)CC(O)(C(=O)CO)CC3OC1CC(N)C(O)C(C)O1 (stereo unspecified)
dose: 0.08 mg/kg/injection, schedule: Q04DX003 (ip), vehicle: saline
  T/C: 128 % of control
dose: 0.09 mg/kg/injection, schedule: Q01DX009 (ip), vehicle: water
  T/C: 127 % of control
dose: 0.12 mg/kg/injection, schedule: Q04DX003 (ip), vehicle: saline
  T/C: 126 % of control
dose: 0.18 mg/kg/injection, schedule: Q04DX003 (ip), vehicle: other
  T/C: 130 % of control
dose: 0.18 mg/kg/injection, schedule: Q04DX003 (ip), vehicle: saline
  T/C: 131 % of control
dose: 0.19 mg/kg/injection, schedule: Q01DX009 (ip), vehicle: water
  T/C: 136 % of control
dose: 0.25 mg/kg/injection, schedule: Q04DX003 (ip), vehicle: distilled water + Tween-80
  T/C: 126 % of control
dose: 0.27 mg/kg/injection, schedule: Q04DX003 (ip), vehicle: other
  T/C: 131 % of control
dose: 0.27 mg/kg/injection, schedule: Q04DX003 (ip), vehicle: saline
  T/C: 136 % of control
dose: 0.4 mg/kg/injection, schedule: Q04DX003 (ip), vehicle: other
  T/C: 141 % of control
dose: 0.4 mg/kg/injection, schedule: Q04DX003 (ip), vehicle: saline
  T/C: 137 % of control
dose: 0.5 mg/kg/injection, schedule: Q04DX003 (ip), vehicle: distilled water + Tween-80
  T/C: 126 % of control
dose: 0.5 mg/kg/injection, schedule: Q04DX003 (ip), vehicle: water, evaluated on day 40
  T/C: 127 % of control
dose: 0.5 mg/kg/injection, schedule: Q04DX003 (ip), vehicle: water, evaluated on day 50
  T/C: 135 % of control
dose: 0.6 mg/kg/injection, schedule: Q04DX003 (ip), vehicle: other
  T/C: 144 % of control
dose: 0.78 mg/kg/injection, schedule: Q04DX003 (ip), vehicle: saline
  T/C: 148 % of control
dose: 0.9 mg/kg/injection, schedule: Q04DX003 (ip), vehicle: other
  T/C: 145 % of control
dose: 0.9 mg/kg/injection, schedule: Q04DX003 (ip), vehicle: saline
  T/C: 147 % of control
dose: 1.0 mg/kg/injection, schedule: Q04DX003 (ip), vehicle: distilled water + Tween-80
  T/C: 144 % of control
dose: 1.0 mg/kg/injection, schedule: Q04DX003 (ip), vehicle: water, evaluated on day 40
  T/C: 127 % of control
dose: 1.0 mg/kg/injection, schedule: Q04DX003 (ip), vehicle: water, evaluated on day 45
  T/C: 131 % of control [5 of 6 alive on day 9]
dose: 1.0 mg/kg/injection, schedule: Q04DX003 (ip), vehicle: water, evaluated on day 50
  T/C: 131 % of control
dose: 2.0 mg/kg/injection, schedule: Q04DX003 (ip), vehicle: distilled water + Tween-80
  T/C: 135 % of control
dose: 2.0 mg/kg/injection, schedule: Q04DX003 (ip), vehicle: saline
  T/C: 135 % of control
dose: 2.0 mg/kg/injection, schedule: Q04DX003 (ip), vehicle: water, evaluated on day 40
  T/C: 128 and 145 % of control
dose: 2.0 mg/kg/injection, schedule: Q04DX003 (ip), vehicle: water, evaluated on day 45
  T/C: 141 % of control
dose: 2.0 mg/kg/injection, schedule: Q04DX003 (ip), vehicle: water, evaluated on day 50
  T/C: 126 % of control
dose: 2.9 mg/kg/injection, schedule: Q01DX009 (ip), vehicle: saline
  T/C: 141 % of control
dose: 3.75 mg/kg/injection, schedule: Q04DX003 (ip), vehicle: clinical formulation
  T/C: 137 % of control
dose: 4.0 mg/kg/injection, schedule: Q04DX003 (ip), vehicle: saline
  T/C: 126, 127 [5 of 6 alive], 147 % of control
dose: 4.0 mg/kg/injection, schedule: Q04DX003 (ip), vehicle: water, evaluated on day 45
  T/C: 127 % of control
dose: 4.0 mg/kg/injection, schedule: Q04DX003 (ip), vehicle: water, evaluated on day 50
  T/C: 128 % of control
dose: 4.5 mg/kg/injection, schedule: Q04DX003 (ip), vehicle: water
  T/C: 125 and 128 % of control
dose: 5.5 mg/kg/injection, schedule: Q04DX003 (ip), vehicle: water
  T/C: 138 % of control
dose: 5.8 mg/kg/injection, schedule: Q01DX009 (ip), vehicle: saline
  T/C: 148 % of control
dose: 6.0 mg/kg/injection, schedule: Q01DX009 (ip), vehicle: water
  survivor count: 8 of 8
dose: 6.0 mg/kg/injection, schedule: Q04DX003 (ip), vehicle: water
  T/C: 125 and 130 % of control
dose: 8.0 mg/kg/injection, schedule: Q04DX003 (ip), vehicle: other
  T/C: 127 % of control
dose: 8.0 mg/kg/injection, schedule: Q04DX003 (ip), vehicle: saline
  T/C: 130 and 137 % of control
[1]
  T/C: 132 % of control
  survivor count: 2 of 6 on day 9
dose: 9.0 mg/kg/injection, schedule: Q04DX003 (ip), vehicle: water
  T/C: 125 % of control
dose: 9.4 mg/kg/injection, schedule: Q04DX003 (ip), vehicle: water
  T/C: 144 % of control
dose: 11.0 mg/kg/injection, schedule: Q04DX003 (ip), vehicle: water
  T/C: 140 % of control
dose: 11.3 mg/kg/injection, schedule: Q04DX003 (ip), vehicle: water
  T/C: 126 % of control
dose: 12.0 mg/kg/injection, schedule: Q01DX009 (ip), vehicle: water
  survivor count: 7 of 8
dose: 12.0 mg/kg/injection, schedule: Q04DX003 (ip), vehicle: water
  T/C: 131 % of control
dose: 12.5 mg/kg/injection, schedule: Q04DX003 (ip), vehicle: other
  T/C: 130 % of control
dose: 12.5 mg/kg/injection, schedule: Q04DX003 (ip), vehicle: saline
  T/C: 136 % of control
dose: 16.0 mg/kg/injection, schedule: Q04DX003 (ip), vehicle: other
  T/C: 132 % of control
dose: 16.0 mg/kg/injection, schedule: Q04DX003 (ip), vehicle: saline
  T/C: 131 % of control
dose: 16.0 mg/kg/injection, schedule: Q04DX003 (ip), vehicle: water
  survivor count: 3 of 6 on day 9, 5 of 6 on day 9, 6 of 6 on day 9
dose: 18.0 mg/kg/injection, schedule: Q04DX003 (ip), vehicle: water
  T/C: 135 % of control
dose: 18.75 mg/kg/injection, schedule: Q04DX003 (ip), vehicle: water
  T/C: 142 % of control
dose: 20.0 mg/kg/injection, schedule: Q04DX003 (ip), vehicle: water
  T/C: 129 % of control
dose: 24.0 mg/kg/injection, schedule: Q04DX003 (ip), vehicle: water
  T/C: 135 and 138 % of control
dose: 25.0 mg/kg/injection, schedule: Q04DX003 (ip), vehicle: other
  T/C: 128 % of control
dose: 30.0 mg/kg/injection, schedule: Q04DX003 (ip), vehicle: clinical formulation
  T/C: 128 % of control
dose: 32.0 mg/kg/injection, schedule: Q04DX003 (ip), vehicle: other
  T/C: 141 % of control
[2]
  T/C: 146 % of control
  survivor count: 8 of 8
dose: 37.5 mg/kg/injection, schedule: Q04DX003 (ip), vehicle: water
  T/C: 125 % of control
dose: 40.0 mg/kg/injection, schedule: Q04DX003 (ip), vehicle: water
  T/C: 130 % of control
dose: 44.0 mg/kg/injection, schedule: Q04DX003 (ip), vehicle: water
  T/C: 140 % of control
dose: 45.0 mg/kg/injection, schedule: Q04DX003 (ip), vehicle: water
  T/C: 135 % of control
dose: 48.0 mg/kg/injection, schedule: Q04DX003 (ip), vehicle: saline
  survivor count: 8 of 8
dose: 64.0 mg/kg/injection, schedule: Q04DX003 (ip), vehicle: other
  T/C: 138 % of control
dose: 64.0 mg/kg/injection, schedule: Q04DX003 (ip), vehicle: water
  T/C: 134 % of control
dose: 72.0 mg/kg/injection, schedule: Q04DX003 (ip), vehicle: saline
  survivor count: 8 of 8
dose: 88.0 mg/kg/injection, schedule: Q04DX003 (ip), vehicle: water
  T/C: 136 % of control
dose: 177.0 mg/kg/injection, schedule: Q04DX003 (ip), vehicle: other
  survivor count: 7 of 8
dose: 180.0 mg/kg/injection, schedule: Q04DX003 (ip), vehicle: water
  T/C: 135 % of control
dose: 200.0 mg/kg/injection, schedule: Q04DX003 (ip), vehicle: water
  T/C: 149 % of control
dose: 288.0 mg/kg/injection, schedule: Q04DX003 (ip), vehicle: water
  T/C: 139 % of control
dose: 512.0 mg/kg/injection, schedule: Q04DX003 (ip), vehicle: other
  survivor count: 3 of 6 on day 9
dose: 512.0 mg/kg/injection, schedule: Q04DX003 (ip), vehicle: saline
  survivor count: 0 of 6

From PubChem BioAssay AID330 (DTP/NCI, 2004)
